In PMC4627230, “Identification of TAX2 peptide as a new unpredicted anti-cancer agent” (Oncotarget, 2015):
These are yes or no findings as the source states them, for the method shown. Some entries that bind do so weakly or less than the wild type.

By UniProt entry, the sequences of proteins in these tests, tags left out. Residues count along the entry.
UniProt P07996, residues 19-1170: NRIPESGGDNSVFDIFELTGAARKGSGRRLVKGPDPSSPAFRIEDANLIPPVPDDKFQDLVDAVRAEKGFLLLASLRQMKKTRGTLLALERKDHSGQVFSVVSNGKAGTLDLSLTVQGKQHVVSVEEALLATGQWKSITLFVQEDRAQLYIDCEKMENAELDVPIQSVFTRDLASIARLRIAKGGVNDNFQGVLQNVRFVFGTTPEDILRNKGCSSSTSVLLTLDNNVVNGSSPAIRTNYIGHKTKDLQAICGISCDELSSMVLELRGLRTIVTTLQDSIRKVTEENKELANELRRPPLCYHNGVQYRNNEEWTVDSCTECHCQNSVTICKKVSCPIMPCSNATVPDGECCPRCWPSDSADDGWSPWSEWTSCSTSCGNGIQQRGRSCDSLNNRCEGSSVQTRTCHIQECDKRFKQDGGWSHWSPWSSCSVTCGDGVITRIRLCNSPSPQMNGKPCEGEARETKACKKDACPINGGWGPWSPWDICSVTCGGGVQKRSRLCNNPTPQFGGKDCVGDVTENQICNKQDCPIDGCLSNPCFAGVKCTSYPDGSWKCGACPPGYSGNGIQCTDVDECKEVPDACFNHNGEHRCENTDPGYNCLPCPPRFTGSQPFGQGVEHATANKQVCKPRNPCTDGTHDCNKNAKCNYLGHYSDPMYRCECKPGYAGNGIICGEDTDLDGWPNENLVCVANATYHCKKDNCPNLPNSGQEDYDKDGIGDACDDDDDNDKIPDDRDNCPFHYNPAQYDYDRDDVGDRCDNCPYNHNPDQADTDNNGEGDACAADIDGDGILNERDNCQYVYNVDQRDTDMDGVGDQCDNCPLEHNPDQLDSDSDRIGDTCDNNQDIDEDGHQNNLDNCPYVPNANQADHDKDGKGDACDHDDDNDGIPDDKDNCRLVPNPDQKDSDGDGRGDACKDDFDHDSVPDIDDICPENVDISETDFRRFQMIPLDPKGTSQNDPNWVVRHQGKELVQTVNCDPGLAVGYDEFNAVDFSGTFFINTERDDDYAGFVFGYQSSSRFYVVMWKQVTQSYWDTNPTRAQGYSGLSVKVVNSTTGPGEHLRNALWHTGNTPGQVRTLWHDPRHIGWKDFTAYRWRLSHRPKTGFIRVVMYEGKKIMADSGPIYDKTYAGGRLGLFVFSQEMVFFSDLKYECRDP

Assays:
[1] = target: Thrombospondin from human platelets (thrombospondin-1) (human) (UniProt P07996); assay: ELISA; TSP-1 (5 μg/mL; 0.5 μg) coated on microtiter plates overnight at 4°C, blocked with 1% BSA; biotinylated peptide 10 μg/mL in buffer with 0.5% BSA, 3 h, room temperature; non-labeled TAX2 competitor 0.001 to 5 mg/mL; detected with anti-biotin antibody; both purified
[2] = target: Thrombospondin from human platelets (thrombospondin-1) (human) (UniProt P07996); assay: SPR; data not shown; no details told; both purified
[3] = target: Thrombospondin from human platelets (thrombospondin-1) (human) (UniProt P07996); assay: MST; data not shown; no details told; both purified

binding [1]	binding [2]	binding [3]	Binder
no binding (tested: 10 μg/mL)	–	–	LSVDESKAQGIL (biotin (position not given)) [biotinylated scrambled dodecapeptide (…)]
binds	binds	binds	CEVSQLLKGDAC (disulfide bridge between the two cysteines (cyclic)) [TAX2 peptide (cyclic disulfide analogue …), not labelled]
